# Results: patent US20240336674A1
# Target: Cyno Sema3A (cyno)
# Test: biosensor GLM chip (BioRad), kinetic binding assay
binder,measurement,value
"Antibody of the invention (clone I) (antibody, human IgG1, kappa, L234A L235A, V domains shown) VH: EVQLVESGGGLVQPGGSLRLSCAASGFTFSSYYMSWVRQAPGKGLEWVSTIIKSGGYAYYPDSVKDRFTISRDNSKNTLYLQMSSLRAEDTAVYYCVRGGQGAMDYWGQGTTVTVSS VL: EIVLTQSPATLSLSPGERATLSCRASQSIGDYLHWYQQKPGQAPRLLIKYASQSISGIPARFSGSGSGTDFTLTITSLEPEDFAVYYCQQGYSFPYTFGGGTKLEIKR",binding,binds

# No constants are given. Whether binding was seen depends on the method and setting. Binding calls can cover weak binding; strength is not graded here.
